Our source for the maximal number values is the supplement of paper PMC9549374.

The list shows a part of the results. Rule as the data show it: active = 2-fold of DMSO or more and inactive = the rest. Single values of this set are uncertain. Some low values are a fixed figure set by the source, not a measured ratio.

The assay has as its system CM7/1-hgem mouse ES cell-derived cardiomyocytes. Description: maximal number of mAG-hGem(1/110)-positive cardiomyocytes over 96 h, fold-change vs DMSO; higher = more cardiomyocyte cell cycle activity. Conditions: 1 µM; 96 (max over 12 h time points) h.
Regarding `COC(C)(C)CCC[C@H](C)C/C=C/C(C)=C/C(=O)OC(C)C`, the maximal number was inactive: 1.
The figure for `COc1cc2occc2c2oc(=O)ccc12` is inactive: 1; for `NP(N)(=O)NC(=O)c1ccc(F)cc1` it is inactive: 1; for `C[C@H]1O[C@@H](O[C@H]2[C@@H](O)C[C@H](O[C@H]3[C@@H](O)C[C@H](O[C@H]4CC[C@@]5(C)[C@H](CC[C@@H]6[C@@H]5CC[C@]5(C)[C@@H](C7=CC(=O)OC7)[C@@H](O)C[C@]65O)C4)O[C@@H]3C)O[C@@H]2C)C[C@H](O)[C@@H]1O` it is active: 3.
The figure for `CCC(C)C(=O)OC1CC2(C)C(c3ccoc3)OC(=O)CC23OC2(C)OC34C(OC(=O)C(C)C)C3(O)C(OC(=O)C5(C)OC5C)C5(C)CC3(O)C(C)(C5CC(=O)OC)C14O2` (stereo unspecified) is inactive: 0.
Then `CC1=CCCC2C1(C)CCC(C)C2(C)CC/C(C)=C/Cn1c[n+](C)c2c(N)ncnc21` (stereo unspecified) [AGELASINE (stereochemistry of diterpene unknown)], with inactive: 1; and `COC[C@]12CN(C=O)[C@@H]3[C@@H]4[C@H](OC)[C@H]1[C@@]3([C@@H](OC)C[C@H]2O)[C@@H]1C[C@@]2(O)[C@H](OC(=O)c3ccccc3)[C@@H]1[C@]4(OC(C)=O)[C@@H](O)[C@@H]2OC`, with inactive: 1.
In the case of `O=C(NC(=O)c1c(F)cccc1F)Nc1cc(Cl)c(OC(F)(F)C(F)C(F)(F)F)cc1Cl` (stereo unspecified), the maximal number was inactive: 1.
Then `C[C@@H]1CC[C@]2(NC1)O[C@H]1C[C@H]3[C@@H]4CC=C5C[C@@H](O)CC[C@]5(C)[C@H]4CC[C@]3(C)[C@H]1[C@@H]2C`, with inactive: 0.5; and `CC1(C)C2CC(=O)[C@]3(C)C(CC[C@@]4(C)[C@H](c5ccoc5)OC(=O)[C@H]5O[C@]543)[C@@]2(C)C(=O)C[C@H]1O` (stereo partly specified), with inactive: 1; and `CC1(C)C(=O)[C@@H]2O[C@@H]2[C@@]2(C)C1C[C@@H](O)[C@]1(C)C2CC[C@@]2(C)[C@H](c3ccoc3)OC(=O)C3OC321` (stereo partly drawn) [1,2alpha-EPOXYDEACETOXYDIHYDROGEDUNIN], with inactive: 1.
The figure for `O=C1C=C2C=C[C@@H]3C[C@@]2(O1)[C@H]1CCCCN31` is inactive: 1.
Then `C=C(C)[C@H]1Cc2c(ccc3c(=O)c4c(oc23)COc2cc(OC)c(OC)cc2-4)O1`, with inactive: 1; and `C/C=C(\C)C(=O)O[C@H]1C[C@@H](OC(C)=O)[C@@]2(C(=O)OC)CO[C@H]3[C@@H](O)[C@@](C)([C@]45O[C@@]4(C)[C@H]4C[C@@H]5O[C@@H]5OC=C[C@@]54O)[C@H]4[C@]1(CO[C@]4(O)C(=O)OC)[C@@H]32`, with inactive: 1.
For `CC(=O)O[C@H]1CC[C@@]2(C)C(=CC[C@@H]3[C@@H]2CC[C@]2(C)C(=O)CC[C@@H]32)C1`, the maximal number was inactive: 1.
Turning to `CCC(N)C(O)c1ccc(O)c(O)c1` (stereo unspecified), the maximal number is inactive: 1.
The figure for `CN1CCN(C(=O)OC2c3nccnc3C(=O)N2c2ccc(Cl)cn2)CC1` (stereo unspecified) is inactive: 0.5; for `N#C/C(=C\c1ccc(O)cc1)C(=O)O` [alpha-CYANO-4-HYDROXYCINNAMIC ACID] it is inactive: 1.
Then `CC[C@@]1(O)C(=O)OCc2c1cc1n(c2=O)Cc2cc3ccccc3nc2-1`, with inactive: 1; and `CC(Cc1ccc(O)cc1)NCC(O)c1cc(O)cc(O)c1` (stereo unspecified), with inactive: 1; and `CC(N)Cc1ccc(O)cc1` (stereo unspecified), with inactive: 0.
The figure for `CC(C)(O)C(Cl)(Cl)Cl` is inactive: 1.
On to `CC1(C)C(C=C(Cl)Cl)C1C(=O)OC(C#N)c1cccc(Oc2ccccc2)c1` (stereo unspecified), for which the maximal number was inactive: 1.
Then `CC(C)=CCC[C@]1(C)C=Cc2c(O)c3c(c(CC=C(C)C)c2O1)O[C@]12C(=C[C@@H]4C[C@H]1C(C)(C)O[C@@]2(C/C=C(/C)C(=O)O)C4=O)C3=O`, with inactive: 1.
The figure for `N#Cc1c(Cl)c(Cl)c(Cl)c(C#N)c1Cl` is inactive: 1; for `COc1ccc(C(=O)O)cc1OC` it is inactive: 1.
On to `CNC1CC(N)C(O)C(OC2OC(CO)C(O)C3OC4(OC(C(N)CO)C(O)C(O)C4O)OC23)C1O` (stereo unspecified), for which the maximal number was inactive: 1.
Then `CC(=O)OC1CN2CCC1CC2` (stereo unspecified), with inactive: 1.
Then `C[C@@H]1O[C@@H](O[C@H]2CC[C@]3(C=O)[C@H]4CC[C@]5(C)[C@@H](C6=CC(=O)OC6)CC[C@]5(O)[C@@H]4CC[C@]3(O)C2)[C@H](O)[C@H](O)[C@H]1O`, with active: 4.
The figure for `C[C@]12CCC(=O)C=C1C=C[C@@H]1[C@@H]2CC[C@@]2(C)[C@H]1CC[C@@]2(O)CCC(=O)O` is inactive: 1; for `C=C(C)[C@H]1Cc2c(ccc3c2O[C@@H]2COc4cc(OC)c(OC)cc4[C@@H]2C3=O)O1` it is inactive: 1.
